Among the test systems are Serum albumin (human); Sorting nexin-33 (human); Sorting nexin-6 (human).
Experiment in all cases: protein microarray (ProtoArray v5.0), streptavidin-Alexa Fluor 647
Settings in all cases: 3'-biotin; 20 mM Tris (pH 7.5), 5 mM MgCl2, 100 mM KCl, 0.1% Tween-20, A/T-rich and random oligonucleotide blockers; temperature not stated; high values mean tight binding

Assay [1] concerns Serologically defined colon cancer antigen 3 (human).
Assay [2] deals with Serum amyloid A protein (human).
Assay [3] concerns Signal recognition particle 9 kDa protein (human).
The subject of assay [4] is Signal recognition particle receptor subunit beta (human).
Assay [5] deals with Signal transducer and activator of transcription 4 (human).
Assay [6] has as its system Signal transducer and activator of transcription 6 (human).
The test system of assay [7] is Smith-Magenis syndrome chromosome region candidate gene 7 protein (human).
Assay [8] relates to Sodium channel and clathrin linker 1 (human).
In assay [9] the test system is Sodium channel subunit beta-1 (human).
Assay [10] deals with Sodium channel subunit beta-4 (human).
In assay [11] the test system is Sodium/glucose cotransporter 2 (human).
The test system of assay [12] is Solute carrier family 22 member 12 (human).
The test system of assay [13] is Solute carrier family 35 member E2 (human).
Assay [14] deals with Solute carrier family 35 member F2 (human).
For assay [15], the system named is Solute carrier family 41 member 3 (human).
The test system of assay [16] is Sperm surface protein Sp17 (human).
The subject of assay [17] is Sperm-associated antigen 11 (human).

The other results are listed elsewhere or left out.

Drawing on paper PMC5996148, this text covers binding signal for 1 sequence.

In the case of “GGGAGGCTGAGGCAGG [G4-1 biotinylated (PQS2)]”, the binding signal in assay [1] was -0.355 z-score; with Serum albumin (human) it was -0.353 z-score; in [2], -0.323 z-score; in assay [3], -0.363 z-score; in assay [4], -0.321 z-score; in assay [5] it was -0.343 z-score. The binding signal in [6] was -0.316 z-score; in assay [7] it was -0.352 z-score; in assay [8] it was -0.355 z-score; in assay [9], -0.346 z-score; in assay [10] it was -0.246 z-score; in [11], -0.336 z-score. Also, the binding signal was -0.334 z-score in assay [12]; -0.344 z-score in [13]; -0.336 z-score in [14]; -0.298 z-score in assay [15]; -0.3 z-score in the assay with Sorting nexin-33 (human); -0.279 z-score in the assay on Sorting nexin-6 (human). For the same sequence, the binding signal was -0.353 z-score in [16] and -0.343 z-score in assay [17].
